Here are results for 1 substance from publication doi:10.1101/709485 (bioRxiv, 2019).

By UniProt entry, the sequences of proteins in these tests, tags left out. Residues count along the entry.
UniProt O96017, residues 64-212: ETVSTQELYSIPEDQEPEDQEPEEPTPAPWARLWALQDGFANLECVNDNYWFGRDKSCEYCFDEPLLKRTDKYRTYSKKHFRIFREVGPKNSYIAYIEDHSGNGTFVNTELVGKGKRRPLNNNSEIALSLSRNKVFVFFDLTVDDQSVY
UniProt P08393, residues 55-74: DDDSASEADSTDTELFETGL

Results are given in words; binding and its absence hold for the method and conditions named. Some results given as binding are weak or reduced against the parent protein; the word gives no strength.

This test has as its target Chk2-FHA domain (aa:64-212) (UniProt O96017). Briefly: NMR titration.

For the substance “ICP0-FBM peptide, phosphorylated at Thr67 (FHA Binding Motif, aa: 55-74) (from UniProt P08393 55-74)”, the binding entry is reported as “binds”.
